Assay results published in paper PMC3873415, “A Non-Biological Method for Screening Active Components against Influenza Virus from Traditional Chinese Medicine by Coupling a LC Column with Oseltamivir Molecularly Imprinted Polymers” (PLoS ONE, 2013).
Where two headings read alike, the source gives them in different places.

How the values were obtained:
[1] = OSMIP-LC column, cited from earlier work
[2] = Affinitive separation on OSMIP-LC column (retention time, LC-MS); design: key to Affinity: with or without affinity to the prepared column was defined by “1” or “0” respectively; with or without affinity to the prepared column was defined by “1” or “0” respectively; settings: for Affinity: to the prepared OSMIP-LC column; for Retention time (approximately): OSMIP-LC column, control compound (Figure 3), MeOH-acetonitrile-formate acid 75:25:0.01, 0.075 ml/min

Row | SMILES | Retention time (approximately) [1] | Retention time (approximately) ([1]; listed as OS) | Affinity [2] | Retention time (approximately) [2]
1 | CCOC(=O)C1=C[C@@H](OC(CC)CC)[C@H](NC(C)=O)[C@@H](N)C1 [OS (template), Oseltamivir] | ~140 min [30] | about 140 min | 1 | 
2 | CC(=O)Oc1ccccc1C(=O)O [aspirin] | ~35 min [30] |  | 0 | 
3 | O=C1CCC[C@@H]2[C@H]3CCCN4CCC[C@@H](CN12)[C@@H]34 [matrine] |  |  | 1 | 
4 | O=C1CCC[C@@H]2[C@H]3CCC[N+]4([O-])CCC[C@@H](CN12)[C@@H]34 (stereo partly shown) [oxymatrine] |  |  | 1 | ~240 min (Figure 3B)
5 | O=C1CCC[C@@H]2[C@H]3CCCN4CCC[C@H](CN12)[C@@H]34 [sophoridine] |  |  | 1 | 
6 | O=C1CCC[C@@H]2[C@H]3CCC[N+]4([O-])CCC[C@H](CN12)[C@@H]34 (stereo partly shown) [oxysophoridine] |  |  | 1 | ~210 min (Figure 3D)
7 | O=C(/C=C/c1ccc(O)c(O)c1)O[C@@H]1C[C@](O)(C(=O)O)C[C@@H](O)[C@H]1O [chlorogenic acid] | ~35 min [30] |  | 0 | 
